Test results reported in paper PMC13239758.
These are yes or no findings as the source states them, for the method shown. For some assays here: In cells and extracts the contact can be indirect. Some binding calls cover weakened binding; strength is not graded here.

By UniProt entry, the sequences of proteins in these tests, tags left out.
UniProt Q8R4B8: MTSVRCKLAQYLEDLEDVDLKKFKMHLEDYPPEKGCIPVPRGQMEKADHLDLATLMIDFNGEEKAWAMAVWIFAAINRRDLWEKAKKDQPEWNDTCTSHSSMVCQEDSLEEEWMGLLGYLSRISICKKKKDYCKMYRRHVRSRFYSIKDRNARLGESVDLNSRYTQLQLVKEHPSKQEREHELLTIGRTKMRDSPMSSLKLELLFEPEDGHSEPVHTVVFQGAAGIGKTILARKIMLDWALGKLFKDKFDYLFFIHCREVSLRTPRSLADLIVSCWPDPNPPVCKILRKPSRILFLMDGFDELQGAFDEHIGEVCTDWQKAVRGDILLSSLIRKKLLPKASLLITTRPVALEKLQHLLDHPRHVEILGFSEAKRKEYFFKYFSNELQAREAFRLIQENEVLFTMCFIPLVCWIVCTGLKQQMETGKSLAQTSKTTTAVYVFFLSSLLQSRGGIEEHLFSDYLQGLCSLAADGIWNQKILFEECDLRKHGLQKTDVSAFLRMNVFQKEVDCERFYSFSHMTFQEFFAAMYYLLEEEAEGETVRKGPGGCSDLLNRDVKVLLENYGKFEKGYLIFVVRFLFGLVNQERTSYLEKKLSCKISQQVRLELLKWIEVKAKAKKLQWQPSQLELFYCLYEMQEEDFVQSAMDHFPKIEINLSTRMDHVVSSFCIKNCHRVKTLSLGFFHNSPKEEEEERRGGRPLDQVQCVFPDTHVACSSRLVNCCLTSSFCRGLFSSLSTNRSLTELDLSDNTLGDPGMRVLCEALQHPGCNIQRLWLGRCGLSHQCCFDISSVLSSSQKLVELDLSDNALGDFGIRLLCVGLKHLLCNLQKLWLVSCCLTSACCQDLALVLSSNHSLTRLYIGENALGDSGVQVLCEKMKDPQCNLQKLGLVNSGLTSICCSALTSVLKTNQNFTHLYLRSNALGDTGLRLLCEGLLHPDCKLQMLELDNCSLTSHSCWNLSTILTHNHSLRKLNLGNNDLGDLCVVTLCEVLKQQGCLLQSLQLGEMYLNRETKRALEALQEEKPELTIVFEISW

Experiments:
[1] = biological target: T1, CD63 (endogenous, mouse BMMCs) (mouse (endogenous in BMMCs)) (UniProt P41731); test: SEC; lysate of WT BMMCs stimulated with IgE–Ag for 5 min; Sephacryl 100 HR, 50 mM Tris-HCl pH 7.4, 150 mM NaCl, 1% octyl glucoside; fractions immunoblotted for NLRP3, ASC, caspase-1, CD63
T1 sequence: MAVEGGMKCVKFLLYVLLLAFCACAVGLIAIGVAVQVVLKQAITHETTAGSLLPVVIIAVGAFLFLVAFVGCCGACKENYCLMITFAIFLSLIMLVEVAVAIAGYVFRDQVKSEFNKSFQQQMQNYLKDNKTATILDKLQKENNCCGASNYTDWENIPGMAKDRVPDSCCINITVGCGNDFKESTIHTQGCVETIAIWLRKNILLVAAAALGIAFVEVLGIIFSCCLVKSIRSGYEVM

[2] = biological target: T1, CD63 (endogenous, mouse BMMCs) (mouse (endogenous in BMMCs)); test: condition: only cells pretreated with CAY-10736 or oridonin (10 μM); co-IP; endogenous proteins; IgE–Ag-stimulated WT BMMCs pretreated with CAY-10736 (10 μM) or oridonin (10 μM) for 30 min; IP of CD63, immunoblot
[3] = biological target: T1, CD63 (endogenous, mouse BMMCs) (mouse (endogenous in BMMCs)); test: condition: only cells pretreated with PF-431396 (10 μM); co-IP; endogenous proteins; IgE–Ag-stimulated WT BMMCs pretreated with PF-431396 (10 μM) for 30 min; IP of Pyk2 or CD63, immunoblot
[4] = biological target: T1, CD63 (endogenous, mouse BMMCs) (mouse (endogenous in BMMCs)); test: SEC; lysate of WT BMMCs treated with LPS (12 h)/nigericin (15 min); Sephacryl 100 HR, 50 mM Tris-HCl pH 7.4, 150 mM NaCl, 1% octyl glucoside; fractions immunoblotted for NLRP3, ASC, caspase-1, CD63
[5] = biological target: T1, CD63 (endogenous, mouse BMMCs) (mouse (endogenous in BMMCs)); test: co-IP; endogenous proteins; IgE-sensitised WT (also Asc−/−) BMMCs untreated or stimulated with Ag (DNP-BSA 1 μg/ml) for 3-30 min; 1 mg pre-cleared lysate in IP lysis buffer, 1 μg antibody to CD63, NLRP3, ASC, NEK7 or Pyk2 overnight at 4 °C, G-plus agarose, immunoblot; some samples pretreated with BAPTA-AM, CAY-10736, oridonin or CY-09

- binding [1]: binds
- binding [2]: no binding
- binding [3]: no binding
- binding [4]: binds weakly
Substance: NLRP3 (endogenous, mouse BMMCs) (from UniProt Q8R4B8 1-1033)
- binding [5]: binds
